System: intracellular ROS in normal newborn human dermal fibroblasts
Test: Dichlorofluorescein diacetate (DCF) assay of intracellular ROS, FACScan
Assay type: cell-based
Protocol: Normal newborn human dermal fibroblasts were cultured from foreskin specimens into DMEM supplemented with 10% CS as described above. Due to the large number of cells needed for time course experiments, and to minimize donor variability, in dichlorofluorescein diacetate FACS experiments cells from three different donors were combined.
Purified lyophilized oligonucleotides were obtained and prepared for cell treatment as described above. All treatments involved a single stimulation with T-oligo, after which cells were harvested at various times without medium changes or addition of more T-oligo. Treatment doses were 100 μM pTT and 40 μM TO except in dose-response experiments; these concentrations were determined in previous experiments to be optimal for measuring DNA damage responses using these T-oligos.^142,150,228
Complementary and scrambled oligonucleotides were chosen for each T-oligo. pAA and pCC were used as controls for pTT, and the complementary 11-base pCTAACCCTAAC (TOC1, SEQ ID NO: 22) and a scrambled sequence pGATCGATCGAT (TOC2, SEQ ID NO: 23) were used as controls for the T-oligo TO.
H2DCFDA stock solution (1 mg/ml) was thawed and diluted in Hanks' Balanced Salt Solution, 1× liquid without phenol red (GIBCO Invitrogen, Carlsbad, Calif.), to a working concentration of 100 μM immediately before use. H2DCFDA is converted by intracellular esterases to dichlorofiuorescein (DCF). When oxidized by intracellular ROS, it will fluoresce at 530 nm when excited by 480 nm light. […] All work involving DCF was conducted in minimal room light. Peaks on FACScan plots that shift to the right indicate greater fluorescence and increased ROS levels. For NADPH oxidase inhibitor studies using DPI,^237,239 the DPI stock solution was added directly to DCF treatment solution to achieve a final DPI treatment concentration of 50 μM.
Hydrogen peroxide positive controls were used to rule out saturation of the DCF probe in the T-oligo dose response experiments. Fibroblasts were exposed to 1 mM, 5 mM and 10 mM H2O2 solutions in PBS for 15 minutes following DCF incubation for 30 minutes, harvested and analyzed as described above.
The horseradish peroxidase assay data was analyzed by one-way ANOVA. DCF assay FACScan results were analyzed using Cellquest software (Becton-Dickinson, Calif.). All peak positions on x-axis of the fluorescence histogram plot were determined visually (using the software) and recorded as a number. Peak position values were then compared using one-way ANOVA.

5′-phosphorylated thymidine dinucleotides [pTT]
ROS measured earlier than with TO (100 μM pTT vs 40 μM TO): up to 20 hours
time measurable ROS stimulation starts (FIG. 14 donor cells, 100 μM pTT, 40 μM TO): 36 h
earliest time ROS levels increased (FIG. 15, three experiments, 100 μM pTT): 16 h
time of measurable ROS stimulation (FIG. 16 representative time course, donor variability): 16 h

Reference: patent US20100286247A1, “Methods of Protection from Oxidative Stress” (Trustees of Boston University, priority 2005, published 2010)
